Source: PubChem BioAssay AID504784 (Drosophila RNAi Screening Center, 2011)
Purpose: 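Fly genes whose silencing alters how much lipid cells keep in droplets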 (primary screen). Cell system: Drosophila Kc167 embryonic cells. Reagent: long dsRNA against Drosophila genes, about 250 ng dsRNA per well. Timing: 4 days. Conditions: cells fed 400 µM oleic acid bound to BSA. Read-out: 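Microscope images give a droplet-to-nucleus area ratio, taken as log and converted to a screen-wide B-score; higher values mean greater lipid storage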. Scale: droplet/nuclear area B-score: higher = more stored lipid (overstorage).
The deposit covers about 17,000 reagents; shown is a random part of those that have a named target and a result. 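Each column is one replicate's B-score; the combined score over replicates was not deposited, so single values may mislead.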 Names joined by + are all predicted targets of the reagent. Further read-outs or replicates are left out here. No sequences are given here.

gene	amplicon	droplet/nuclear area B-score, replicate 1
Cyp6a16Psi (retired record)	DRSC03307	2.15
SMSr	DRSC10998	-3.09
SMSr	DRSC10999	-0.233
Tasp1	DRSC10495	0.206
CG11807	DRSC06087	2.79
Elk	DRSC07608	-1.44
RpL24-like	DRSC16111	1.08
SmydA-2	DRSC10296	-0.298
CG31288	DRSC14667	-0.365
rad50	DRSC04523	-0.196
CG10631	DRSC02081	-1.5
zpg	DRSC09702	0.458
Mgat3	DRSC01305	2.04
CG30103	DRSC06894	0.401
CG9926	DRSC16582	-6.11
shep	DRSC09765	-0.0288
shep	DRSC09771	-0.837
CG15260	DRSC01977	0.836
eIF2Bdelta	DRSC04058	0.648
dsb	DRSC08407	0.0504
dsb	DRSC08542	0.432
sta	DRSC18838	2.25
CG15916	DRSC19740	0.152
CG14835	DRSC10205	0.0746
Dok	DRSC18204	2.66
CG30395	DRSC03896	-0.00608
Arms	DRSC03856	0.411
Arms	DRSC03857	0.505
Arms	DRSC04052	-0.0206
Arms	DRSC04256	6.01
Cpr64Ad	DRSC08284	-1.47
COX7A	DRSC16514	5.65
CCT1	DRSC16877	0.0296
GNBP2	DRSC10404	-0.124
eIF6	DRSC04674	-0.159
Polr1C	DRSC02719	-0.26
CG14711 + Zaf1	DRSC14934	0.22
BBS9	DRSC04257	-0.381
QIL1	DRSC10888	-0.0202
ProRS-m	DRSC08261	1.55
heca	DRSC16964	2.71
heca	DRSC22990	1.17
CG9377	DRSC03217	0.926
Ssadh	DRSC15621	-2.62
HDAC6	DRSC20252	0.01
CG33169	DRSC11853	-0.636
CG8611	DRSC19340	0.889
ttm2	DRSC08268	-1.19
ss	DRSC17069	-1.05
CG10205	DRSC05979	4.63
CG2852	DRSC04321	-3.06
Kaz1-ORFB + Kaz1-ORFA	DRSC08669	-0.267
Pex14	DRSC11754	-1.08
MED28	DRSC15721	0.697
Fer2	DRSC15925	0.452
snoRNA:U31:54Ec + snoRNA:snR38:54Eb + snoRNA:U27:54Eb + 8 more	DRSC06458	0.0661
CG12708	DRSC19490	-1.99
Mst57Dc	DRSC16745	2.21
CG32440	DRSC11480	-3.73
CG11791	DRSC14391	4.18
CG31804	DRSC22728	0.224
Iyd	DRSC10614	-0.471
Iyd	DRSC10615	2.04
Tailor	DRSC12526	-0.0411
CG17404	DRSC15234	0.469
CG14947	DRSC02429	-0.957
Nmda1	DRSC07479	-0.578
CG5966	DRSC18394	-0.0188
Cf2	DRSC00744	-1.38
Cf2	DRSC23015	-0.185
lsn	DRSC16081	0.875
AP-1-2beta	DRSC19336	-0.0681
Grip91	DRSC20249	-0.0135
CG8252	DRSC07126	1.57
RpL31	DRSC06716	3.21
Myo28B1	DRSC03375	0.0713
CG33158	DRSC09708	1.56
CG33158	DRSC09709	0
CG33158	DRSC10438	-0.985
mud	DRSC19019	0.143
hebe	DRSC05192	-0.284
hebe	DRSC06605	0.577
hebe	DRSC21614	-1.22

9 consecutive entries already listed, quoted:
gene	amplicon	droplet/nuclear area B-score, replicate 1
CG8611	DRSC19340	0.889
ttm2	DRSC08268	-1.19
ss	DRSC17069	-1.05
CG10205	DRSC05979	4.63
CG2852	DRSC04321	-3.06
Kaz1-ORFB + Kaz1-ORFA	DRSC08669	-0.267
Pex14	DRSC11754	-1.08
MED28	DRSC15721	0.697
Fer2	DRSC15925	0.452
